Test results reported in the supplement of paper PMC10849652.
The other results are listed elsewhere or left out.

The chains behind the UniProt entries cited, without tags or fusion partners. Where a name states a change or a piece, a line headed by the entry shows the natural chain unless it says otherwise.
UniProt Q04864: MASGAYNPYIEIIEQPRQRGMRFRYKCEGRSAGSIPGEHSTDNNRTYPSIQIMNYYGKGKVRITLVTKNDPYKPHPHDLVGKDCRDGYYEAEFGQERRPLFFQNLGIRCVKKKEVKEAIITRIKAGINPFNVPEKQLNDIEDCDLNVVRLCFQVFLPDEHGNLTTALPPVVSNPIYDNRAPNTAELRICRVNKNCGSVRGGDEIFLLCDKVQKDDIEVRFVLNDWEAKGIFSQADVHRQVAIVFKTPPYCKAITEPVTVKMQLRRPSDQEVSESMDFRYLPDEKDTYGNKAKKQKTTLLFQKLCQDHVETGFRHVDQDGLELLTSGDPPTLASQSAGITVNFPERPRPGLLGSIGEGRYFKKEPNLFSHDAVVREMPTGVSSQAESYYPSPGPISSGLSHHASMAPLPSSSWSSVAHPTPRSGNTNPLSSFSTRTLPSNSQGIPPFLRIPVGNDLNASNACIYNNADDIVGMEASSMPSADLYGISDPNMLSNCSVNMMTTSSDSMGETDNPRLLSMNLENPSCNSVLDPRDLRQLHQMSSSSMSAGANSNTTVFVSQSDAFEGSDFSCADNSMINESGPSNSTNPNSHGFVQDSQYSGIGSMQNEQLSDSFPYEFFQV
UniProt P46063: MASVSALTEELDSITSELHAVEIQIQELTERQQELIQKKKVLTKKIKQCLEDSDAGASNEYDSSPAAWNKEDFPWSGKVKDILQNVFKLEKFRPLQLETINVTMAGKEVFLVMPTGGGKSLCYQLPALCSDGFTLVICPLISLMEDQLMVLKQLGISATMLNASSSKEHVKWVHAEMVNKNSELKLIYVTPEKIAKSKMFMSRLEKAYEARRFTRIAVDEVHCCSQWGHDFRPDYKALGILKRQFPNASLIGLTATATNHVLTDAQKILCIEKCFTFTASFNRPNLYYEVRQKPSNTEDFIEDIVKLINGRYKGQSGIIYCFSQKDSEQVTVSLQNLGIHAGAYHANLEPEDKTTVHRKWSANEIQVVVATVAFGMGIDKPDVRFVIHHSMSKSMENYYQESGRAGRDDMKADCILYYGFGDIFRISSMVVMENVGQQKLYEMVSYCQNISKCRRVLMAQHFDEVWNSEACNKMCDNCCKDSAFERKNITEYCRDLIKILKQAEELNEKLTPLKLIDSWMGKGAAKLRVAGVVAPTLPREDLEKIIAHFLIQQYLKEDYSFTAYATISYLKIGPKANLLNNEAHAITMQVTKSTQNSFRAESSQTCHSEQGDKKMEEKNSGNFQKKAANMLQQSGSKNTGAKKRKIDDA
UniProt Q8TC12: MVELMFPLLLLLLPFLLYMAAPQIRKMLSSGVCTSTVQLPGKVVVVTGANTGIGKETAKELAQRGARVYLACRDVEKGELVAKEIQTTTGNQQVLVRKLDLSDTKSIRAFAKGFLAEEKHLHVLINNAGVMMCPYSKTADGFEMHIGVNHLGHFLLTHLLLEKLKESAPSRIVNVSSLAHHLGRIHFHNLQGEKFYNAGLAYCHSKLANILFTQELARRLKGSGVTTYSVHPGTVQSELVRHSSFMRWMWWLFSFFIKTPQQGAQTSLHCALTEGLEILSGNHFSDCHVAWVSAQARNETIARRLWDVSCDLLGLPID
UniProt Q9NTX7: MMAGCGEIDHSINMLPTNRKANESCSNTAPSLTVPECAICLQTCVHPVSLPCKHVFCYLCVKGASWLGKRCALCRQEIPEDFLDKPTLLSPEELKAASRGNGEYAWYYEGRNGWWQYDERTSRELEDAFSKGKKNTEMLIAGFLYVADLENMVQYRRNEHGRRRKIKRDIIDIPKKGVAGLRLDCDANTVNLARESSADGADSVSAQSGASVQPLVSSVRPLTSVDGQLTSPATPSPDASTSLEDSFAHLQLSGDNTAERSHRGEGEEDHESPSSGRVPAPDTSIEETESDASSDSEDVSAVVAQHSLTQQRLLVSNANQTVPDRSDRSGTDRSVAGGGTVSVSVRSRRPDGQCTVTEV
UniProt O75792: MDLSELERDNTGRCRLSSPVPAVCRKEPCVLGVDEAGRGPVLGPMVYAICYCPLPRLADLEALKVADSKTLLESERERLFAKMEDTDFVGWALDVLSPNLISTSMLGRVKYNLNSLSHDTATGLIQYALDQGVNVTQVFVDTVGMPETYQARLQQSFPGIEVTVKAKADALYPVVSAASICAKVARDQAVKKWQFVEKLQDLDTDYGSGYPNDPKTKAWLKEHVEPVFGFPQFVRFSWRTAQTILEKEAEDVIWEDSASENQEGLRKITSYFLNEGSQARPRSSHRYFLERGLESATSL
UniProt Q6ZS17: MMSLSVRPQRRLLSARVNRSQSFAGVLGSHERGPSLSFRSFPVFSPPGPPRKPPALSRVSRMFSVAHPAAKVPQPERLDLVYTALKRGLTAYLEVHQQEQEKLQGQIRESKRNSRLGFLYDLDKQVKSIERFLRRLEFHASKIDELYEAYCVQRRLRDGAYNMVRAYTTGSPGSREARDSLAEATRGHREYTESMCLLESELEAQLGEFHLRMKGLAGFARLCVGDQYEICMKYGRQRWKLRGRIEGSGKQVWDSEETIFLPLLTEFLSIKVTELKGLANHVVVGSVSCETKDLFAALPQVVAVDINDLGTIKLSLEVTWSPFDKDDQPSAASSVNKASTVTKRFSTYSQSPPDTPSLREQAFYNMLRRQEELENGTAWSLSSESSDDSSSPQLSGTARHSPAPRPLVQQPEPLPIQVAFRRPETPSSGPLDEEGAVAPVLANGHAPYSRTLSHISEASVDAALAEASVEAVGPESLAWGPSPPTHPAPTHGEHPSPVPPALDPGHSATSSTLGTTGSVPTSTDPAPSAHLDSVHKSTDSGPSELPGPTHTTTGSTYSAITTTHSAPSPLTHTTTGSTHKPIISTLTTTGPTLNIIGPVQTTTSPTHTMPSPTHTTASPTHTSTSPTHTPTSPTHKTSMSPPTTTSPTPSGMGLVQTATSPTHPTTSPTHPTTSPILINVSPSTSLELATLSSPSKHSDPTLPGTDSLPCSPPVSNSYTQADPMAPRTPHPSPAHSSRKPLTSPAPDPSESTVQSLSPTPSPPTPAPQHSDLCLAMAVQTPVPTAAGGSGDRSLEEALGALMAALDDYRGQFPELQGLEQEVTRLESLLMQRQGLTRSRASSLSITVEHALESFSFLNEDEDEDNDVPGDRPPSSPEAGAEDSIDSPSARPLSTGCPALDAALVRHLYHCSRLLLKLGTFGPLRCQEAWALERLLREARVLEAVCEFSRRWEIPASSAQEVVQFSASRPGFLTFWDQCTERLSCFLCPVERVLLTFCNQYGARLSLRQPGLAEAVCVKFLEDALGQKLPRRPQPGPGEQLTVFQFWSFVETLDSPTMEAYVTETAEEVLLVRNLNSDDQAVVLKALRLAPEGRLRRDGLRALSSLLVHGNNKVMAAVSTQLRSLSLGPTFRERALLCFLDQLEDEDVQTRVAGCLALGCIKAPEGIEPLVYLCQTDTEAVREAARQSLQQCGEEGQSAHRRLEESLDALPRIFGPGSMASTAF
UniProt Q9P2R6: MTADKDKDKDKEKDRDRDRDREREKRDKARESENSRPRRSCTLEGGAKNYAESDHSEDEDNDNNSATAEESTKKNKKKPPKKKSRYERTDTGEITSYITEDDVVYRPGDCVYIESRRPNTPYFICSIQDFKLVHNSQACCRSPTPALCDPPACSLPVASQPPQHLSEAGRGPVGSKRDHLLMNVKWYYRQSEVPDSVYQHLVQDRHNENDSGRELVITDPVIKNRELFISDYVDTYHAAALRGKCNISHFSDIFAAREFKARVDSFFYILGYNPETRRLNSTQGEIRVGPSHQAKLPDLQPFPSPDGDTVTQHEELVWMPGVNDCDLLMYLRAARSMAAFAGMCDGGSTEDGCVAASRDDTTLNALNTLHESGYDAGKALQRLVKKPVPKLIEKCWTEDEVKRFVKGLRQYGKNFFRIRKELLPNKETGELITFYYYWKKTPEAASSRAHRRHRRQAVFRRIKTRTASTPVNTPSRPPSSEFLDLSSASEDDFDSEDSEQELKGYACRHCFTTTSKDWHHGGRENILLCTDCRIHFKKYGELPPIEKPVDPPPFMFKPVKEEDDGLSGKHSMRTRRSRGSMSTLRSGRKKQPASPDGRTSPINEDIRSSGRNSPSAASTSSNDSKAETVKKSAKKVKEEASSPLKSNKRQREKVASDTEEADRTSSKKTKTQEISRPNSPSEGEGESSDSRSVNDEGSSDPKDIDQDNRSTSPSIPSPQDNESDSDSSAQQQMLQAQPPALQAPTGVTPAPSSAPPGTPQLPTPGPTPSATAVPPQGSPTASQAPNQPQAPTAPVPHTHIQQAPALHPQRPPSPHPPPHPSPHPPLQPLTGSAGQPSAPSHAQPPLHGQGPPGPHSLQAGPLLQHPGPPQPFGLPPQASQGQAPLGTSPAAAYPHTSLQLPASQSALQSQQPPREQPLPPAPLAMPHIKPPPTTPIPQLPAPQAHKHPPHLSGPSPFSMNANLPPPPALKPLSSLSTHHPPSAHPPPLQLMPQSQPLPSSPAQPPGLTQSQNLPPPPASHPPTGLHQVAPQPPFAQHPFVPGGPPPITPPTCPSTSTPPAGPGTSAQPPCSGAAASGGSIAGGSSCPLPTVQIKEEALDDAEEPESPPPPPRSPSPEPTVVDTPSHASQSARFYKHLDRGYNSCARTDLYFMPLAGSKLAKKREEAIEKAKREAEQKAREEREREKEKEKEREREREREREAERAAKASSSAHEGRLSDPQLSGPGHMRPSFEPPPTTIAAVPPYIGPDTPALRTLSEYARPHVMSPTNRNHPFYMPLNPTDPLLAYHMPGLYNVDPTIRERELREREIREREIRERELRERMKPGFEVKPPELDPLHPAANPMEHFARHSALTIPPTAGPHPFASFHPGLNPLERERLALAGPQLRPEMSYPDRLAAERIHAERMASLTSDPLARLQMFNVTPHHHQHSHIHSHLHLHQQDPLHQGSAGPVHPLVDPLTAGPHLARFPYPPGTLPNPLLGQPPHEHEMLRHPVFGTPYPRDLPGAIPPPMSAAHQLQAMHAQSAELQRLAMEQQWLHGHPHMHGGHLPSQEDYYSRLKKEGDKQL
UniProt Q96LZ7: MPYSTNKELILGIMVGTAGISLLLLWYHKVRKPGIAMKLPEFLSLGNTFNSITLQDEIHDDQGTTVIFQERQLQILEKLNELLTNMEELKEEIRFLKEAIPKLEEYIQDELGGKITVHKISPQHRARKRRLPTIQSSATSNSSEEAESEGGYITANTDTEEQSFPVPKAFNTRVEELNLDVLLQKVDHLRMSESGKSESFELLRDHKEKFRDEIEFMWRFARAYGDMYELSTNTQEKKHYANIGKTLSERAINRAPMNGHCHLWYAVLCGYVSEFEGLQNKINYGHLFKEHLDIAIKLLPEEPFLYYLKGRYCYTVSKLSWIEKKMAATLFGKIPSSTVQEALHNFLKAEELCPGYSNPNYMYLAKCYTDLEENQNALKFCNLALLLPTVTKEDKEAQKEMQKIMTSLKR
UniProt Q96E14: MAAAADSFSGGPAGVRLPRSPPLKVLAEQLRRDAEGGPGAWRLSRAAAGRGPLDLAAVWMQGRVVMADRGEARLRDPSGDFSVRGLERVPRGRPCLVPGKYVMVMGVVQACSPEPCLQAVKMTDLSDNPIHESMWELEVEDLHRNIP
UniProt O94762: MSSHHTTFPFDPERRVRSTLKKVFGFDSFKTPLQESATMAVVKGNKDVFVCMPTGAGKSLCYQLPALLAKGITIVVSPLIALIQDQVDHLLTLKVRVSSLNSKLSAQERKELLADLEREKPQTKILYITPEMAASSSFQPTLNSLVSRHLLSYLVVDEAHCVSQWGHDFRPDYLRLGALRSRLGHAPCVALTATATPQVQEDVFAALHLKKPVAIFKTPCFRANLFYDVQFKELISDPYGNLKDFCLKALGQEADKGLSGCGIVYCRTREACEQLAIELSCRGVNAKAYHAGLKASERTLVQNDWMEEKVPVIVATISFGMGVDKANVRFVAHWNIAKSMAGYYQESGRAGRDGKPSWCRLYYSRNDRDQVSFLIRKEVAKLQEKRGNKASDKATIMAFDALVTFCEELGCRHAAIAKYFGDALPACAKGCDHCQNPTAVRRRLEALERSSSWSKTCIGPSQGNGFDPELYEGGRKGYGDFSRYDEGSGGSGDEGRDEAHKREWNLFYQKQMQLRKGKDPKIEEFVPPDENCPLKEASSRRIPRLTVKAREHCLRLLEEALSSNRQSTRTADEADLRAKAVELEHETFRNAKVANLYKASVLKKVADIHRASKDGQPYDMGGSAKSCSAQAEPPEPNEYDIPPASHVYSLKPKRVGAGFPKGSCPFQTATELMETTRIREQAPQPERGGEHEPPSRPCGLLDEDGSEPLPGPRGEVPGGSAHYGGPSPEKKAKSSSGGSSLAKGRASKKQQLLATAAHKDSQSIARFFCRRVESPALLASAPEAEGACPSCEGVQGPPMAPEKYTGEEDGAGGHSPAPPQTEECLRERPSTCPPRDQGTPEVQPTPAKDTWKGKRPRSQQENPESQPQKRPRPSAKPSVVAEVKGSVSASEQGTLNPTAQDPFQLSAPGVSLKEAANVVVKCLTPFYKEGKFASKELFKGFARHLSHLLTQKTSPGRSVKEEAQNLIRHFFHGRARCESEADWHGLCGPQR

Columns and labels:
Assay in all cases: log2 fold change, soluble protein after heating vs DMSO (PISA); higher = thermal stabilisation; K562 cells, 10 uM, 30 min; active = over 0.2 and 3.5 SD of the protein, either way, in both replicates (recomputed)
[1] = compound: CC[C@@H]1C(=O)N(C)c2cnc(Nc3ccc(C(=O)NC4CCN(C)CC4)cc3OC)nc2N1C1CCCC1
Procedure, shortened: (§1)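 K562 cells (2×10^6 cells/mL) were treated with 10 μM compound for 30 min, and aliquots were heated for 3 min over 48°C-58°C. Pooled aliquots were extracted in PBS with 0.5% NP-40 at 4°C, and the supernatant after 21,000xg for 90 min was measured by TMTpro 16plex LC-MS/MS with channel sums equalised. Reported thermal stability, relative to control samples and from duplicates, is a log2 fold change.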

volasertib = compound: CC[C@@H]1C(=O)N(C)c2cnc(Nc3ccc(C(=O)N[C@H]4CC[C@H](N5CCN(CC6CC6)CC5)CC4)cc3OC)nc2N1C(C)C [volasertib]
Procedure, shortened: as §1

[2] = compound: CC[C@H](C)N1C=C(C2=C(C=C(C=C21)C3=CN=C(C=C3)N4CCNCC4)C(=O)NCC5=C(C=C(NC5=O)C)C)C
Procedure, shortened: as §1

epoxomicin = compound: CC[C@H](C)[C@@H](C(=O)N[C@@H]([C@@H](C)O)C(=O)N[C@@H](CC(C)C)C(=O)[C@]1(CO1)C)NC(=O)[C@H]([C@@H](C)CC)N(C)C(=O)C [epoxomicin]
Procedure, shortened: as §1

[3] = compound: CCn1cc(-c2ccnc3[nH]c(-c4cccc(CN(C)C)c4)cc23)c(-c2ccc(NC(=O)N(C)C)cc2)n1
Procedure, shortened: as §1

[4] = compound: CN(C)CC(=O)Nc1ccc2[nH]c(=O)c3ccccc3c2c1
Procedure, shortened: as §1

[5] = compound: CN1C2=C(C3=C1C(=O)N(N=C3)CC4=CC(=CC=C4)N)SC(=C2)S(=O)C
Procedure, shortened: as §1

[6] = compound: CN1CCC(CNc2ccc3ncc(-c4cccc(OC(F)(F)F)c4)n3n2)CC1
Procedure, shortened: as §1

[7] = compound: CCn1c(C(=O)N(C2CC2)C2CC2)cc2c3c(ncn3C)c(Nc3cc(C)n(C)n3)nc21
Procedure, shortened: as §1

rosiglitazone = compound: CN(CCOC1=CC=C(C=C1)C[C@H]2C(=O)NC(=O)S2)C3=CC=CC=N3 (racemic) [rosiglitazone]
Procedure, shortened: as §1

Question: Which log2 fold change [1] does the source give for REL (UniProt Q04864) here?
Answer: inactive: 0.045

Question: What about the log2 fold change (volasertib) of the same target?
Answer: inactive: -0.176

Question: And the log2 fold change [2]?
Answer: inactive: -0.022

Question: And the log2 fold change (epoxomicin)?
Answer: inactive: 0.043

Question: And the log2 fold change [3]?
Answer: inactive: 0.159

Question: And the log2 fold change [4]?
Answer: inactive: 0.003

Question: And the log2 fold change [5]?
Answer: inactive: 0.011

Question: What about the log2 fold change [6] of the same target?
Answer: inactive: 0.141

Question: Which results are given for RECQL (UniProt P46063)?
Answer: log2 fold change [1]: inactive: -0.032; log2 fold change (volasertib): inactive: -0.014; log2 fold change [2]: inactive: 0.002; log2 fold change (epoxomicin): inactive: 0; log2 fold change [3]: inactive: -0.021; log2 fold change [4]: inactive: 0.016; log2 fold change [5]: inactive: -0.076; log2 fold change [6]: inactive: 0.058

Question: For RDH11 (UniProt Q8TC12), which log2 fold change [1] is on record?
Answer: inactive: -0.213

Question: What about the log2 fold change (volasertib) of the same target?
Answer: active: -0.543

Question: And the log2 fold change [2]?
Answer: inactive: 0.015

Question: What about the log2 fold change (epoxomicin) of the same target?
Answer: inactive: 0.045

Question: And the log2 fold change [3]?
Answer: inactive: -0.072

Question: And the log2 fold change [4]?
Answer: inactive: 0.037

Question: What about the log2 fold change [5] of the same target?
Answer: inactive: 0.027

Question: What about the log2 fold change [6] of the same target?
Answer: active: -0.466

Question: For RNF2 (UniProt Q99496), which log2 fold change [1] is on record?
Answer: inactive: -0.045

Question: What about the log2 fold change (volasertib) of the same target?
Answer: inactive: -0.169

Question: What about the log2 fold change [2] of the same target?
Answer: active: -0.307

Question: What about the log2 fold change (epoxomicin) of the same target?
Answer: inactive: 0.168

Question: What about the log2 fold change [3] of the same target?
Answer: inactive: 0.012

Question: What about the log2 fold change [4] of the same target?
Answer: inactive: 0.007

Question: And the log2 fold change [5]?
Answer: inactive: 0.063

Question: And the log2 fold change [6]?
Answer: inactive: -0.03

Question: What does the source list for RNF146 (UniProt Q9NTX7)?
Answer: log2 fold change [1]: inactive: 0.121; log2 fold change (volasertib): inactive: -0.168; log2 fold change (epoxomicin): inactive: 0.016; log2 fold change [7]: inactive: 0.038; log2 fold change [4]: inactive: 0.064; log2 fold change (rosiglitazone): inactive: 0.067; log2 fold change [5]: inactive: 0.032

Question: Which log2 fold change [1] does the source give for RCOR1 (UniProt Q9UKL0) here?
Answer: inactive: 0.116

Question: And the log2 fold change (volasertib)?
Answer: inactive: 0.001

Question: And the log2 fold change [2]?
Answer: inactive: 0.212

Question: What about the log2 fold change (epoxomicin) of the same target?
Answer: inactive: 0.002

Question: What about the log2 fold change [3] of the same target?
Answer: inactive: -0.033

Question: And the log2 fold change [4]?
Answer: inactive: 0.006

Question: And the log2 fold change [5]?
Answer: inactive: -0.024

Question: And the log2 fold change [6]?
Answer: inactive: -0.037

Question: With RCC1 isoform 2 (UniProt P18754) as the target, how does the log2 fold change [1] read?
Answer: inactive: -0.037

Question: And the log2 fold change (volasertib)?
Answer: inactive: -0.063

Question: And the log2 fold change [2]?
Answer: inactive: 0.044

Question: And the log2 fold change (epoxomicin)?
Answer: inactive: 0.118

Question: And the log2 fold change [3]?
Answer: inactive: -0.02

Question: What about the log2 fold change [4] of the same target?
Answer: inactive: 0.168

Question: What about the log2 fold change [5] of the same target?
Answer: inactive: -0.09

Question: And the log2 fold change [6]?
Answer: inactive: 0.11

Question: RNF185 (UniProt Q96GF1) was tested. Which log2 fold change [1] did it give?
Answer: inactive: -0.041

Question: What about the log2 fold change (volasertib) of the same target?
Answer: inactive: -0.101

Question: What about the log2 fold change [2] of the same target?
Answer: inactive: -0.06

Question: And the log2 fold change [3]?
Answer: inactive: -0.003

Question: What about the log2 fold change [4] of the same target?
Answer: inactive: 0.028

Question: And the log2 fold change [6]?
Answer: inactive: 0.09

Question: With RBM4 (UniProt Q9BWF3) as the target, how does the log2 fold change [1] read?
Answer: inactive: -0.043

Question: And the log2 fold change (volasertib)?
Answer: active: -0.3

Question: What about the log2 fold change [2] of the same target?
Answer: inactive: 0.057

Question: And the log2 fold change (epoxomicin)?
Answer: inactive: -0.018

Question: What about the log2 fold change [3] of the same target?
Answer: inactive: 0.059

Question: What about the log2 fold change [4] of the same target?
Answer: inactive: -0.024

Question: What about the log2 fold change [5] of the same target?
Answer: inactive: 0.129

Question: What about the log2 fold change [6] of the same target?
Answer: inactive: -0.091

Question: Which results are given for RNASEH2A (UniProt O75792)?
Answer: log2 fold change [1]: inactive: -0.062; log2 fold change (volasertib): inactive: -0.075; log2 fold change [2]: inactive: 0.068; log2 fold change (epoxomicin): inactive: 0.061; log2 fold change [3]: inactive: -0.061; log2 fold change [4]: inactive: -0.118; log2 fold change [5]: inactive: -0.019; log2 fold change [6]: active: -0.394

Question: With RIPOR1 isoform 4 (UniProt Q6ZS17) as the target, how does the log2 fold change (epoxomicin) read?
Answer: inactive: 0.111

Question: How did the log2 fold change [2] turn out when RERE (UniProt Q9P2R6) was run?
Answer: inactive: -0.049

Question: And the log2 fold change (epoxomicin)?
Answer: inactive: 0.088

Question: What about the log2 fold change [7] of the same target?
Answer: inactive: -0.019

Question: And the log2 fold change (rosiglitazone)?
Answer: inactive: -0.012

Question: For RBP4 (UniProt P02753), which log2 fold change [1] is on record?
Answer: inactive: -0.154

Question: What about the log2 fold change [7] of the same target?
Answer: inactive: 0.129

Question: And the log2 fold change [3]?
Answer: inactive: 0.292

Question: What about the log2 fold change [4] of the same target?
Answer: inactive: -0.039

Question: And the log2 fold change (rosiglitazone)?
Answer: inactive: 0.027

Question: And the log2 fold change [5]?
Answer: inactive: 0.405

Question: And the log2 fold change [6]?
Answer: inactive: -0.271

Question: With RMDN2 isoform 2 (UniProt Q96LZ7) as the target, how does the log2 fold change [2] read?
Answer: inactive: 0.068

Question: And the log2 fold change [4]?
Answer: inactive: -0.167

Question: RC3H2 (UniProt Q9HBD1) was tested. Which log2 fold change (volasertib) did it give?
Answer: inactive: 0.094

Question: And the log2 fold change (epoxomicin)?
Answer: inactive: -0.22

Question: What about the log2 fold change [3] of the same target?
Answer: inactive: 0.004

Question: And the log2 fold change [6]?
Answer: inactive: 0.001

Question: Which results are given for RHBDD2 isoform 2 (UniProt Q6NTF9)?
Answer: log2 fold change [1]: inactive: -0.043; log2 fold change [2]: inactive: 0.179; log2 fold change (epoxomicin): inactive: -0.068; log2 fold change [7]: inactive: 0.026; log2 fold change [3]: inactive: -0.097; log2 fold change (rosiglitazone): inactive: 0.022; log2 fold change [5]: inactive: -0.049; log2 fold change [6]: inactive: 0.023

Question: What does the source list for RIOX2 (UniProt Q8IUF8)?
Answer: log2 fold change (volasertib): inactive: 0.084; log2 fold change [2]: inactive: 0.071; log2 fold change (epoxomicin): inactive: 0.087; log2 fold change [7]: inactive: 0; log2 fold change [3]: inactive: -0.05; log2 fold change [4]: inactive: 0.093; log2 fold change (rosiglitazone): inactive: 0.032; log2 fold change [5]: inactive: -0.012; log2 fold change [6]: inactive: -0.119

Question: How did the log2 fold change (volasertib) turn out when RMI2 (UniProt Q96E14) was run?
Answer: inactive: -0.23

Question: And the log2 fold change [4]?
Answer: inactive: 0.153

Question: And the log2 fold change [5]?
Answer: inactive: -0.084

Question: With RNF111 isoform 3 (UniProt Q6ZNA4) as the target, how does the log2 fold change [2] read?
Answer: inactive: 0.024

Question: And the log2 fold change [7]?
Answer: inactive: -0.084

Question: What about the log2 fold change [3] of the same target?
Answer: inactive: -0.025

Question: What about the log2 fold change [6] of the same target?
Answer: inactive: 0.09

Question: How did the log2 fold change [3] turn out when RECQL5 (UniProt O94762) was run?
Answer: inactive: 0.022

Question: What about the log2 fold change [4] of the same target?
Answer: inactive: -0.026

Question: What about the log2 fold change [5] of the same target?
Answer: inactive: 0.202

Question: What about the log2 fold change [6] of the same target?
Answer: inactive: 0.104
